Out of some 31,000 sequences screened, about 1,400 (4.5%) were called active.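 The calls were made as follows: active = median seed-adjusted z-score above 1 or below -1; inactive = the rest.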 The list shows a part of the results.
assay: Novel Modifiers of Survival Motor Neuron (SMN) Protein: Gene Identification via Genome-wide siRNA Screen; conditions: HEK293T SMN2-luciferase reporter, siRNA knockdown, 72 h; actives lie on both sides;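 also: luminescence tracks full-length SMN protein made from the SMN2 reporter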
In short: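 Each of three siRNAs per gene is reverse-transfected (1 pmol) into reporter HEK293T cells whose luciferase output tracks SMN protein level. After 72 h culture, ONE-Glo luminescence is control-normalized, log10-transformed and MAD-standardized; Common Seed Analysis deprioritizes seed-driven hits.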

| Sequence | median seed-adjusted z-score |
| --- | --- |
| GGGAUGCUCUACUACCAGATT against NCF2 | inactive: -0.201 |
| GCCCAUUAAUAUUAUAGGUTT against LAP3 | inactive: 0.0175 |
| GAAGCUACAUGGGAAGUGUTT against SIRT7 | inactive: -0.427 |
| CAACCUAUAAAAUACUCGATT against SLC24A1 | inactive: 0.372 |
| GAACCCUCCUAAAUCCAUATT against DUSP3 | inactive: -0.00768 |
| CCUUCAUCCGGAAAUUAAATT against ZIM3 | inactive: -0.02 |
| GGAUCAUACUAGAAGACUATT against TREM1 | inactive: 0 |
| GAGAAGAACCUGUUCGUCATT against SLC9A3 | inactive: 0.422 |
| CAUAGAUACUUACGGAAAATT against SLC9A4 | inactive: 0.693 |
| CAAACCUAAUUGAUCAGCATT against BHLHB2 | inactive: 0 |
| GGCCUGAUGUUGGUCAAGATT against NOD2 | inactive: 0.129 |
| CCUUUGAGGUGUACACGGATT against CENTD2 | inactive: -0.305 |
| GGACCGCUGUCUAUGACAATT against LRFN2 | inactive: 0 |
| CAUCUAUAUAGGGAAAACATT against LILRA2 | inactive: -0.103 |
| GGACUACACCAGGUUCCAATT against STK10 | inactive: 0.0138 |
| GGAAGAUCGAAAGUGCGAATT against GZMB | inactive: -0.0378 |
| CCAAAGAACAUUUGACUCATT against KLF16 | inactive: 0.461 |
| CCUCCAGUCUAGUUGAUCATT against ZNF560 | inactive: 0.0927 |
| GAAGUUCAUGGAUCAACAUTT against NUDC | inactive: -0.227 |
| GCAAACCAGUGAACACCUUTT against RNASE1 | inactive: 0.085 |
| GCAACAAGGUCAUUAGAUATT against FSD1L | inactive: 0.166 |
| GACCUUCCAUAUGUCCAAATT against DUSP19 | inactive: 0.343 |
| CAACUUUGAAUAUACCCUATT against GRHL1 | inactive: 0.115 |
| AGACUAUCGUGGACGAAAATT against PHOSPHO1 | inactive: -0.296 |
| GCACAAGUGUAUUCAACCATT against COPS3 | inactive: 0.176 |
| GUAUCGAGAUCGUUAUGAUTT against EIF4B | inactive: -0.374 |
| CAAUAGGUUAUGUUAUUCATT against PLSCR1 | inactive: 0.661 |

Some of the entries so far, field by field:
GGCCUGAUGUUGGUCAAGATT against NOD2
  median seed-adjusted z-score: inactive: 0.129
CCUUUGAGGUGUACACGGATT against CENTD2
  median seed-adjusted z-score: inactive: -0.305
GGACCGCUGUCUAUGACAATT against LRFN2
  median seed-adjusted z-score: inactive: 0
CAUCUAUAUAGGGAAAACATT against LILRA2
  median seed-adjusted z-score: inactive: -0.103

(cont.)

| Sequence | median seed-adjusted z-score |
| --- | --- |
| GGAGCCUAUCAUAACCUUATT against ZNF484 | inactive: 0.2 |
| CAAUUACCCGGACUAUGUUTT against CPT1C | inactive: -0.458 |
| CCAUCAACCUGUACCCUCUTT against NUDT21 | inactive: 0.0851 |
| CCAAUAUCAUAAUAGGCAUTT against ADAM22 | inactive: 0.292 |
| GCUCAGAAAAUAGUCUAUATT against RGS13 | inactive: 0.0487 |
| GUAGGACUGUAGACAGUGATT against FGFR2 | inactive: 0.158 |
| CAAGAAGACGGGAUCAGAATT against MYRIP | inactive: 0.141 |
| GCAGUCAACUCAAAUGCAATT against ADARB2 | inactive: -0.249 |
| GAGAGUAUCGAAACCGUUUTT against GNPTAB | inactive: 0.296 |
| CCUUGGGAAUUAUCCACCATT against MPZL1 | inactive: 0.376 |
| GAAUCAAUAGAGCCACGAATT against GGA1 | inactive: 0.172 |
| GCAACUUCAGUGUCAUUCUTT against PTGER2 | inactive: 0 |
| GCAUUUGCCCAGUUCAUGATT against RBM28 | inactive: 0.649 |
| GCAUUUACCAUAAAUCCGATT against PCDHA13 | inactive: -0.624 |
| GAAACUUUGUUCACCGAUUTT against DACH2 | inactive: -0.00102 |
| AGCUCCACGUCUACAAGAATT against ENPP7 | inactive: -0.478 |
| AAACCGUGGAGUAAACUCATT against ONECUT2 | inactive: -0.696 |
| GGAUGAUAAUGCUAAUCCATT against PPP1R3A | inactive: -0.241 |
| CGACCCAGCCCUGAUCUUATT against CHST3 | inactive: 0.319 |
| GAAGCAUGCAAGACAGAAATT against UBE2T | inactive: -0.0157 |
| GGCGACUGUUUAUACAUGATT against ALDH7A1 | inactive: -0.406 |
| CGUCUUGCCUUUGUGCUGATT against CHMP1A | inactive: 0 |
| GCGCAGCUACUUUUCCCAATT against DAZAP1 | inactive: 0 |
| CCGUCACAGUAGAGACUAUTT against LRRC4C | inactive: -0.122 |
| GCAUUUGUAGGGUUACGGATT against GABRG1 | inactive: 0.312 |
| ACCUGAUCAUGCGCCCUGATT against WFIKKN1 | inactive: 0 |
